Source: PubChem BioAssay AID485353 (National Center for Advancing Translational Sciences (NCATS), 2010)
The campaign covered roughly 330,000 compounds. About 610 (0.18%) were called active. This list was built around the results that the source calls inconclusive (neither active nor inactive); the mix of calls is not that of the screen. Calls follow the shape of the full dose curve. Potencies beside an inconclusive call are fits to weak or partial responses and may not hold up.

test: qHTS of Yeast-based Assay for SARS-CoV PLP; also: nearly all actives have a fitted effect of over 55% in size; as to activity, positive = growth rescue: 0% is about no effect; conditions: S. cerevisiae expressing SARS-CoV PLpro; Potency: growth rescue; activity, positive = growth rescue: at 32.9 µM (top of the series)
Potency is read from the fitted curve at half-maximal effect.

Row | SMILES | Potency | activity, positive = growth rescue
1 | CC1(C)C=C(c2ccc(O)cc2)CC(C)(C)N1 | inconclusive: 20 µM [activator, single point] | –
2 | CC1CCN(CCc2nc3cc(NC(=O)Nc4ccccc4)ccc3n2C)CC1 | – | inactive: -7.07%
3 | CCN1CCN(Cc2ccc(NC(=O)Nc3cccs3)cc2)CC1 | inconclusive: 1.12 µM [activator, partial curve] | –
4 | CN(C(=O)c1ccc(NC(=O)C2CCCN(C(=O)OC(C)(C)C)C2)cc1)C1CCCC1 (stereo not drawn) | inconclusive: 20 µM [activator, single point] | –
5 | Cc1cccc(C2c3[nH]c4ccccc4c3CCN2C(=O)Cc2nc(-c3ccccc3)n[nH]2)n1 (stereo not drawn) | – | inactive: 1.25%
6 | O=C(c1ccc([N+](=O)[O-])cc1)N1CCSC1c1ccccc1 (stereo not drawn) | inconclusive: 8.91 µM [activator, partial curve] | –
7 | CCCCOC(=O)c1ccc(Nc2ccc([N+](=O)[O-])cn2)cc1 | inconclusive: 4.47 µM [activator, single point] | –
8 | C=CCNC(=S)NNC(=O)c1ccc(OCCCC)cc1 | inconclusive: 0.398 µM [activator, full curve, poor fit] | –
9 | O=C(CN(C(=O)CCC(=O)Nc1nccs1)c1ccc(F)c(Cl)c1)NCC1CCCO1 (stereo not drawn) | – | inactive: 2.66%
10 | Clc1cccc(CSc2nnc(-c3cccnc3)n2Cc2ccco2)c1 | inconclusive: 2.82 µM [activator, single point] | –
11 | NC(=O)c1ccccc1NC(=O)Cc1cccs1 | inconclusive: 4.47 µM [activator, single point] | –
12 | COc1ccc(-n2c(SCc3ccc([N+](=O)[O-])cc3)nnc2-c2ccc(C)cc2)cc1 | inconclusive: 0.398 µM [activator, full curve, poor fit] | –
13 | O=C(NC(=S)NCCC1=CCCCC1)c1cncc(Br)c1 | active: 12.6 µM | –
14 | O=C(c1ccco1)N1CCN(c2ncnc3c2[nH]c2ccc(Cl)cc23)CC1 | inconclusive: 20 µM [activator, single point] | –
15 | COC(=O)c1ccccc1NC(=O)CCC(=O)N1CC(C)Oc2ccc(C)cc21 (stereo not drawn) | inconclusive: 15.8 µM [activator, single point] | –
16 | O=C(Cc1ccccc1[N+](=O)[O-])NCc1ccc(Cl)cc1Cl | inconclusive: 3.55 µM [activator, single point] | –
17 | CCOC(=O)c1c(NC(=O)CSc2nc3nc(C)cc(C)n3n2)sc(CC)c1C | inconclusive: 2.24 µM [activator, partial curve] | –
18 | Oc1ccccc1C1=NCCNC(C(F)(F)C(F)F)=C1 | inconclusive: 20 µM [activator, single point] | –

Complete entries, looked up by structure.
COC(=O)c1ccccc1NC(=O)CCC(=O)N1CC(C)Oc2ccc(C)cc21 (stereo not drawn) is listed with Potency: inconclusive: 15.8 µM [activator, single point]
C=CCNC(=S)NNC(=O)c1ccc(OCCCC)cc1 is listed with Potency: inconclusive: 0.398 µM [activator, full curve, poor fit]
